{"source": "the supplement of paper PMC8728848", "experiment_in_all_cases": "glycan array binding signal (z-score within array); higher = stronger binding", "conditions_in_all_cases": "glycan notation: IUPAC condensed, linker removed", "key": {"[1]": {"biological_target": "Gal(b1-3)GlcNAc(b1-6)GalNAc", "procedure,_shortened": "(§1)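 Arrays were curated from the Consortium for Functional Glycomics database, 3228 in total, and kept only where the protein sequence was available. Binding is expressed as a within-array Z-score. This score was averaged across arrays of the same protein sequence at different concentrations or buffers and across linkers, and negative values can be read as non-binding.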"}, "[2]": {"biological_target": "Gal(b1-3)GlcNAc(b1-6)[Gal(b1-3)]GalNAc", "procedure,_shortened": "as §1"}, "Gal(b1-3)GlcNAc6S": {"biological_target": "Gal(b1-3)GlcNAc6S", "procedure,_shortened": "as §1"}, "[3]": {"biological_target": "Gal(b1-3)[Fuc(a1-4)]GlcNAc", "procedure,_shortened": "as §1"}, "[4]": {"biological_target": "Gal(b1-3)[Fuc(a1-4)]GlcNAc(b1-2)Man", "procedure,_shortened": "as §1"}, "[5]": {"biological_target": "Gal(b1-3)[Fuc(a1-4)]GlcNAc(b1-2)Man(a1-3)[Gal(b1-3)[Fuc(a1-4)]GlcNAc(b1-2)Man(a1-6)]Man(b1-4)GlcNAc(b1-4)[Fuc(a1-6)]GlcNAc", "procedure,_shortened": "as §1"}, "[6]": {"biological_target": "Gal(b1-3)[Fuc(a1-4)]GlcNAc(b1-3)Gal(b1-3)[Fuc(a1-4)]GlcNAc", "procedure,_shortened": "as §1"}, "[7]": {"biological_target": "Gal(b1-3)[Fuc(a1-4)]GlcNAc(b1-3)Gal(b1-4)[Fuc(a1-3)]GlcNAc", "procedure,_shortened": "as §1"}, "[8]": {"biological_target": "Gal(b1-3)[Fuc(a1-4)]GlcNAc(b1-6)GalNAc", "procedure,_shortened": "as §1"}, "[9]": {"biological_target": "Gal(b1-3)[GlcNAc(b1-6)]GalNAc", "procedure,_shortened": "as §1"}, "[10]": {"biological_target": "Gal(b1-3)[Neu5Ac(a2-6)]GalNAc", "procedure,_shortened": "as §1"}, "[11]": {"biological_target": "Gal(b1-3)[Neu5Ac(a2-6)]GlcNAc(b1-4)Gal(b1-4)Glc", "procedure,_shortened": "as §1"}, "[12]": {"biological_target": "Gal(b1-3)[Neu5Ac(b2-6)]GalNAc", "procedure,_shortened": "as §1"}, "Gal(b1-4)Gal": {"biological_target": "Gal(b1-4)Gal", "procedure,_shortened": "as §1"}, "[13]": {"biological_target": "Gal(b1-4)GalNAc(a1-3)[Fuc(a1-2)]Gal(b1-4)GlcNAc", "procedure,_shortened": "as §1"}, "[14]": {"biological_target": "Gal(b1-4)GalNAc(b1-3)[Fuc(a1-2)]Gal(b1-4)GlcNAc", "procedure,_shortened": "as §1"}, "Gal(b1-4)Glc": {"biological_target": "Gal(b1-4)Glc", "procedure,_shortened": "as §1"}, "Gal(b1-4)Glc6S": {"biological_target": "Gal(b1-4)Glc6S", "procedure,_shortened": "as §1"}, "Gal(b1-4)GlcNAc": {"biological_target": "Gal(b1-4)GlcNAc", "procedure,_shortened": "as §1"}, "[15]": {"biological_target": "Gal(b1-4)GlcNAc(a1-6)Gal(b1-4)GlcNAc", "procedure,_shortened": "as §1"}, "Gal(b1-4)GlcNAc(b1-2)Man": {"biological_target": "Gal(b1-4)GlcNAc(b1-2)Man", "procedure,_shortened": "as §1"}, "[16]": {"biological_target": "Gal(b1-4)GlcNAc(b1-2)Man(a1-3)Man(b1-4)GlcNAc(b1-4)GlcNAc", "procedure,_shortened": "as §1"}, "[17]": {"biological_target": "Gal(b1-4)GlcNAc(b1-2)Man(a1-3)[Gal(b1-4)GlcNAc(b1-2)Man(a1-6)]Man(b1-4)GlcNAc(b1-4)GlcNAc", "procedure,_shortened": "as §1"}, "[18]": {"biological_target": "Gal(b1-4)GlcNAc(b1-2)Man(a1-3)[Gal(b1-4)GlcNAc(b1-2)Man(a1-6)]Man(b1-4)GlcNAc(b1-4)[Fuc(a1-6)]GlcNAc", "procedure,_shortened": "as §1"}, "[19]": {"biological_target": "Gal(b1-4)GlcNAc(b1-2)Man(a1-3)[Gal(b1-4)GlcNAc(b1-2)Man(a1-6)][Gal(b1-4)GlcNAc(b1-4)]Man(b1-4)GlcNAc(b1-4)[Fuc(a1-6)]GlcNAc", "procedure,_shortened": "as §1"}, "[20]": {"biological_target": "Gal(b1-4)GlcNAc(b1-2)Man(a1-3)[Gal(b1-4)GlcNAc(b1-2)Man(a1-6)][GlcNAc(b1-4)]Man(b1-4)GlcNAc(b1-4)[Fuc(a1-6)]GlcNAc", "procedure,_shortened": "as §1"}, "[21]": {"biological_target": "Gal(b1-4)GlcNAc(b1-2)Man(a1-3)[GlcNAc(b1-2)Man(a1-6)]Man(b1-4)GlcNAc(b1-4)GlcNAc", "procedure,_shortened": "as §1"}, "[22]": {"biological_target": "Gal(b1-4)GlcNAc(b1-2)Man(a1-3)[GlcNAc(b1-4)][Gal(b1-4)GlcNAc(b1-2)Man(a1-6)]Man(b1-4)GlcNAc(b1-4)GlcNAc", "procedure,_shortened": "as §1"}, "[23]": {"biological_target": "Gal(b1-4)GlcNAc(b1-2)Man(a1-3)[Man(a1-6)]Man(b1-4)GlcNAc(b1-4)GlcNAc", "procedure,_shortened": "as §1"}, "[24]": {"biological_target": "Gal(b1-4)GlcNAc(b1-2)Man(a1-6)Man(b1-4)GlcNAc(b1-4)GlcNAc", "procedure,_shortened": "as §1"}, "[25]": {"biological_target": "Gal(b1-4)GlcNAc(b1-2)Man(a1-6)[GlcNAc(b1-2)Man(a1-3)]Man(b1-4)GlcNAc(b1-4)GlcNAc", "procedure,_shortened": "as §1"}, "[26]": {"biological_target": "Gal(b1-4)GlcNAc(b1-2)Man(a1-6)[Man(a1-3)]Man(b1-4)GlcNAc(b1-4)GlcNAc", "procedure,_shortened": "as §1"}, "[27]": {"biological_target": "Gal(b1-4)GlcNAc(b1-2)[Gal(b1-4)GlcNAc(b1-4)]Man(a1-3)[Gal(b1-4)GlcNAc(b1-2)Man(a1-6)]Man(b1-4)GlcNAc(b1-4)GlcNAc", "procedure,_shortened": "as §1"}, "[28]": {"biological_target": "Gal(b1-4)GlcNAc(b1-2)[Gal(b1-4)GlcNAc(b1-4)]Man(a1-3)[Gal(b1-4)GlcNAc(b1-2)[Gal(b1-4)GlcNAc(b1-6)]Man(a1-6)]Man(b1-4)GlcNAc(b1-4)GlcNAc", "procedure,_shortened": "as §1"}, "[29]": {"biological_target": "Gal(b1-4)GlcNAc(b1-2)[Gal(b1-4)GlcNAc(b1-4)]Man(a1-3)[GlcNAc(b1-4)][Gal(b1-4)GlcNAc(b1-2)Man(a1-6)]Man(b1-4)GlcNAc(b1-4)GlcNAc", "procedure,_shortened": "as §1"}, "[30]": {"biological_target": "Gal(b1-4)GlcNAc(b1-2)[Gal(b1-4)GlcNAc(b1-4)]Man(a1-3)[GlcNAc(b1-4)][Gal(b1-4)GlcNAc(b1-2)[Gal(b1-4)GlcNAc(b1-6)]Man(a1-6)]Man(b1-4)GlcNAc(b1-4)GlcNAc", "procedure,_shortened": "as §1"}, "[31]": {"biological_target": "Gal(b1-4)GlcNAc(b1-2)[Gal(b1-4)GlcNAc(b1-6)]Man(a1-6)[Gal(b1-4)GlcNAc(b1-2)Man(a1-3)]Man(b1-4)GlcNAc(b1-4)GlcNAc", "procedure,_shortened": "as §1"}}, "note": "Some of the results follow."}
{"binder": "SP15308C-bot-338-23-338 (Bacteroides ovatus) (protein) DEWTDEQFKQLISFKTQPGGWGVTDVHVRYANSAKYTYNLPVLVSGSTDNTDDRLVSFSLRDDTLDILNFEKFGNRPELYFRELPQKYYSFPKELTIPAGQSHALLPIEFSLDGLDDSQKWALPLKVCEDANGTYAVNPRKYYRTAVLRPILFNEFSGRFSGSSLLGTMAGESDIKFSSTEIKLNVVTDSIVFFYAGQRTEDYEDRINYKVFLQFTGDKVDSKKDLYKMKIWAENEKLKFNSYSTPTYKVSSEMDATKTYLKHTYIVISDIDFDFVDYTSVPNYEIEYNMKGGLSVSRDLDTRKPDEDQGSDSKWW", "values": [{"measurement": "glycan array binding signal (z-score)", "setting": "[1]", "value": -0.403}, {"measurement": "glycan array binding signal (z-score)", "setting": "[2]", "value": 1.03}, {"measurement": "glycan array binding signal (z-score)", "setting": "Gal(b1-3)GlcNAc6S", "value": 0.945}, {"measurement": "glycan array binding signal (z-score)", "setting": "[3]", "value": -0.153}, {"measurement": "glycan array binding signal (z-score)", "setting": "[4]", "value": 0.097}, {"measurement": "glycan array binding signal (z-score)", "setting": "[5]", "value": 1.6}, {"measurement": "glycan array binding signal (z-score)", "setting": "[6]", "value": -0.568}, {"measurement": "glycan array binding signal (z-score)", "setting": "[7]", "value": -0.138}, {"measurement": "glycan array binding signal (z-score)", "setting": "[8]", "value": -0.034}, {"measurement": "glycan array binding signal (z-score)", "setting": "[9]", "value": -0.421}, {"measurement": "glycan array binding signal (z-score)", "setting": "[10]", "value": -0.154}, {"measurement": "glycan array binding signal (z-score)", "setting": "[11]", "value": -0.312}, {"measurement": "glycan array binding signal (z-score)", "setting": "[12]", "value": -0.601}, {"measurement": "glycan array binding signal (z-score)", "setting": "Gal(b1-4)Gal", "value": -0.46}, {"measurement": "glycan array binding signal (z-score)", "setting": "[13]", "value": -0.038}, {"measurement": "glycan array binding signal (z-score)", "setting": "[14]", "value": -0.414}, {"measurement": "glycan array binding signal (z-score)", "setting": "Gal(b1-4)Glc", "value": -0.335}, {"measurement": "glycan array binding signal (z-score)", "setting": "Gal(b1-4)Glc6S", "value": 0.333}, {"measurement": "glycan array binding signal (z-score)", "setting": "Gal(b1-4)GlcNAc", "value": -0.508}, {"measurement": "glycan array binding signal (z-score)", "setting": "[15]", "value": -0.143}, {"measurement": "glycan array binding signal (z-score)", "setting": "Gal(b1-4)GlcNAc(b1-2)Man", "value": 0.773}, {"measurement": "glycan array binding signal (z-score)", "setting": "[16]", "value": -0.354}, {"measurement": "glycan array binding signal (z-score)", "setting": "[17]", "value": -0.685}, {"measurement": "glycan array binding signal (z-score)", "setting": "[18]", "value": 0.645}, {"measurement": "glycan array binding signal (z-score)", "setting": "[19]", "value": 0.108}, {"measurement": "glycan array binding signal (z-score)", "setting": "[20]", "value": -0.388}, {"measurement": "glycan array binding signal (z-score)", "setting": "[21]", "value": -0.905}, {"measurement": "glycan array binding signal (z-score)", "setting": "[22]", "value": -0.483}, {"measurement": "glycan array binding signal (z-score)", "setting": "[23]", "value": -0.22}, {"measurement": "glycan array binding signal (z-score)", "setting": "[24]", "value": 0.05}, {"measurement": "glycan array binding signal (z-score)", "setting": "[25]", "value": -0.346}, {"measurement": "glycan array binding signal (z-score)", "setting": "[26]", "value": -0.112}, {"measurement": "glycan array binding signal (z-score)", "setting": "[27]", "value": 0.311}, {"measurement": "glycan array binding signal (z-score)", "setting": "[28]", "value": 0.267}, {"measurement": "glycan array binding signal (z-score)", "setting": "[29]", "value": -0.338}, {"measurement": "glycan array binding signal (z-score)", "setting": "[30]", "value": 0.342}, {"measurement": "glycan array binding signal (z-score)", "setting": "[31]", "value": -0.059}]}
